Earlier results, collected in patent publication US10435371B2, “Multifunctional aminoquinoline therapeutic agent” (LOHOCLA RESEARCH CORPORATION, priority 2014, dated 2019).

Biological target: GABA site, GABA-A Receptor
Settings: PDSP historical reference value, [^3H]Muscimol; read-out: Reference Ki, GABAA (rat brain); cited from earlier work

In the case of NCCCC(=O)O [GABA], the Ki is listed as 241 ± 26 nM.
